For 4 substances, binding results are on record in paper PMC10700192.

Amino acid sequences for entries named in this document (tags omitted). Residues count along the entry.
UniProt Q6P3S6: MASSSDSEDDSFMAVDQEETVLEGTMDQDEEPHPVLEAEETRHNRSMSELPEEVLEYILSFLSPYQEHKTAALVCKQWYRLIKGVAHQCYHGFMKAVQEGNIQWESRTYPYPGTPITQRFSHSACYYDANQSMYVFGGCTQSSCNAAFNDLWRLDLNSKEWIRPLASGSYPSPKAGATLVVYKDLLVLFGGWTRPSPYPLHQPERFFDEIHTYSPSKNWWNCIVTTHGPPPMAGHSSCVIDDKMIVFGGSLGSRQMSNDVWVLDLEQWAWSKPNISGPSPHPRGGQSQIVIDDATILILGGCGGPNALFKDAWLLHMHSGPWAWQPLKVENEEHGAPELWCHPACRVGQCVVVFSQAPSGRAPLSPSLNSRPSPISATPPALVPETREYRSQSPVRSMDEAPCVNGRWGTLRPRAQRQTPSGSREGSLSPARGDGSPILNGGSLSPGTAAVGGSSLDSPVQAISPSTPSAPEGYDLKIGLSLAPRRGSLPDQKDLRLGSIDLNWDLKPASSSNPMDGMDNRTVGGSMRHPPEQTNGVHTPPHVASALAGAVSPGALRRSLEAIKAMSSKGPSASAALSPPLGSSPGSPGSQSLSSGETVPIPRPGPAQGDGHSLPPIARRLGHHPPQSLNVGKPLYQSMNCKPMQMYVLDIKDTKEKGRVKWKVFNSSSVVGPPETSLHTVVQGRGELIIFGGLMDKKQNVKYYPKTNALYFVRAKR
UniProt Q9NZQ7, residues 19-290: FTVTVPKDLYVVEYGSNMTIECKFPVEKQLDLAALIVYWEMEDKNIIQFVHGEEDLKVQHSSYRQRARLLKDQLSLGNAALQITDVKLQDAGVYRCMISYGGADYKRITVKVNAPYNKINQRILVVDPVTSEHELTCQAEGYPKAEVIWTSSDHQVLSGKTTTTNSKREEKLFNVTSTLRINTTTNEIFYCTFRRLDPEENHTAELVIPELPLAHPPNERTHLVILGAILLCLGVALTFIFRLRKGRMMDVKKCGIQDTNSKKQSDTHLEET

No constants are given. Whether binding was seen depends on the method and setting. Binding seen in cells or lysates may run through a third protein. Some results given as binding are weak or reduced against the parent protein; the word gives no strength.

For assay [1], the target named is JFK E3 ubiquitin ligase (human (endogenous in H520)) (UniProt Q6P3S6). Description: co-IP; lysates of H520 cells (WT or CK2-/-) transfected with vector (pcDNA3), Flag-ING4 or Flag-S150A for 48 h; immunoprecipitation and Western blot. (In general: Immunoblotting shows a protein as a band on a membrane.)
Assay [2] has as its target PD‐L1 (programmed death ligand 1) (human (endogenous in H520)) (UniProt Q9NZQ7). The description is as above.
The next assay addresses GST‐ING4 (PEBG) (human) (UniProt Q9UNL4). Description: pull-down; GST pull-down from lysates of H520 cells transfected with PEBG (GST), GST-ING4, GST-ING4/ΔPHD or GST-F178A; Western blot.
Another assay deals with his‐PD‐L1 (human) (UniProt Q9NZQ7). Description: pull-down; Ni-NTA pull-down from lysates of H520 cells transfected with vector, his-PD-L1 or his-PD-L1/ΔC for 48 h; Western blot.
In assay [3] the target is JFK E3 ubiquitin ligase (human (endogenous in H520)) (UniProt Q6P3S6). Description: co-IP; endogenous proteins in H520 cell lysates (WT or CK2-/- cells; untreated or TBB 10 µM for 0, 0.5 and 2 h); lysis buffer 50 mM TrisHCl pH7.4, 150 mM NaCl, 2 mM EDTA, 1% NP-40, 0.1% SDS; primary antibody overnight at 4 °C, protein A/G magnetic beads; Western blot.
For assay [4], the target named is PD‐L1 (programmed death ligand 1) (human (endogenous in H520)) (UniProt Q9NZQ7). The assay is described as above.

Turning to Flag‐ING4 (from UniProt Q9UNL4 1-249), the binding result in assay [1] and in assay [2] was “binds” throughout.

“Flag‐ING4/S150A (from UniProt Q9UNL4 1-249)”: the binding entry in assay [1] and in assay [2] was “binds” throughout.

On to “PD‐L1 (programmed death ligand 1) (from UniProt Q9NZQ7 19-290)”, for which the binding entry in the assay with GST‐ING4 (PEBG) (human) is reported as “binds”.

Take “ING4 (inhibitor of growth 4) (from UniProt Q9UNL4 1-249)”: the binding result (with his‐PD‐L1 (human); in assay [3]; in assay [4]) was “binds” each time.
